{
  "source": "PubChem BioAssay AID1471",
  "about": "(National Center for Advancing Translational Sciences (NCATS), 2008)",
  "note": "The campaign covered roughly 230,000 compounds. About 310 (0.13%) were called active. The inconclusive results got no clear call from the source; some entries with a clear call stand among them for comparison. The call rests on the fitted dose curve; in most records, active means well fitted activation curve with a large enough effect; inconclusive means small, poorly fitted or top-dose-only effect; inactive means no such curve, though single readings can be large or run the other way. A potency beside an inconclusive call is a rough fit, not a confirmed value. Non-standard residues stand in square brackets, D forms with d. Residues, ends and D or L forms follow the SMILES beside them. Potency means the concentration at half of the fitted maximal effect.",
  "data": [
    {"experiment": "qHTS Multiplex Assay to Identify Dual Action Probes in a Cell Model of Huntington: Cytoprotection (ATP); further: nearly all actives have a fitted effect of over 45% in size;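 on cytoprotection (ATP increase): toxic huntingtin expression switched on by the ecdysone agonist tebufenozide; % of control where 0% means no effect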", "details": "PC12 HTT-Q103 induced, ATP luminescence, 40 h; cytoprotection (ATP increase): at 56.4 µM (top of the series) unless noted", "procedure,_shortened": "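PC12 cells with ecdysone-inducible HTT exon 1 Q103-GFP, induced with 100 nM tebufenozide and co-treated with library compounds in a dose series (1536-well, 1500 cells/well). Cytoprotection read as ATP content by ATPlite luminescence.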", "values": [
      {"smiles": "O=C(c1cc([N+](=O)[O-])ccc1Cl)N1CCN(c2ccccc2)CC1", "Potency": "inconclusive: 112 nM [activator, full curve, poor fit]"},
      {"smiles": "COc1ccc(-n2c(C)nn(CCOc3ccccc3)c2=O)cc1", "Potency": "inconclusive: 12600 nM [activator, single point]"},
      {"smiles": "CCOC(=O)Oc1c(OC)cc(C(=O)O[C@H]2C[C@H]3CN4CCc5c([nH]c6cc(OC)ccc56)[C@@H]4C[C@H]3[C@@H](C(=O)OC)[C@@H]2OC)cc1OC", "Potency": "inconclusive: 50.1 nM [activator, full curve, poor fit]"},
      {"smiles": "CC(=O)NCC(=O)N[C@H](CCC(=O)O)C(=O)O", "note": "(Ac-Gly-[dE]-OH)", "Potency": "inconclusive: 126 nM [activator, full curve]"},
      {"smiles": "COc1ccc(CNC(=O)C2CC=CCC2C(=O)O)cc1OC", "note": "(configuration not stated)", "Potency": "inconclusive: 25100 nM [activator, single point]"},
      {"smiles": "Cc1noc(C)c1S(=O)(=O)Nc1ccc(C(=O)N2CCCCC2)cc1", "cytoprotection (ATP increase)": "inactive: 4.86%"},
      {"smiles": "COC(=O)c1ccccc1NC(=S)NC(C)=O", "Potency": "inconclusive: 11200 nM [activator, partial curve]"},
      {"smiles": "O=C(NC(=S)Nc1ccc(Oc2ccccc2)cc1)c1ccc(Cl)cc1", "Potency": "inconclusive: 2240 nM [activator, partial curve]"},
      {"smiles": "Nc1nc2c(c(=O)[nH]1)N(C=O)[C@H](CNc1ccc(C(=O)N[C@@H](CCC(=O)O)C(=O)O)cc1)CN2", "cytoprotection (ATP increase)": "inactive: 5.22% [at 40.3 µM]"},
      {"smiles": "OCCN(Cc1ccccc1)Cc1ccc(Cl)cc1Cl", "Potency": "inconclusive: 3160 nM [activator, partial curve, poor fit]"},
      {"smiles": "CSc1nsc(SC)c1NC(=O)Nc1ccccc1C", "Potency": "inconclusive: 5620 nM [activator, single point]"},
      {"smiles": "O=C(COC(=O)C1CCC(=O)N1)Nc1ccc(Oc2ccccc2)cc1", "note": "(configuration not stated)", "Potency": "inconclusive: 5010 nM [activator, single point]"},
      {"smiles": "Nc1ccc(C(=O)OCc2nc3c(ccc4ccccc43)[nH]2)cc1", "Potency": "inconclusive: 1120 nM [activator, single point]"},
      {"smiles": "CC1=CC(C)=Nc2ccc(C)cc2N1", "Potency": "inconclusive: 794 nM [activator, single point]"},
      {"smiles": "O=C(O)COc1ccccc1C(Nc1ccccn1)c1cc(Cl)c2cccnc2c1O", "note": "(configuration not stated)", "cytoprotection (ATP increase)": "inactive: -8.68% [at 10 µM]"},
      {"smiles": "O=C(/C=N/O)NCc1cccnc1", "cytoprotection (ATP increase)": "inactive: -14.7% [at 10 µM]"},
      {"smiles": "CC(C)NC(=O)CCCC(=O)NC(C)C", "Potency": "inconclusive: 2240 nM [activator, partial curve]"},
      {"smiles": "CCN(CC)C(=O)/C(C#N)=C/c1cc(O)c(O)c([N+](=O)[O-])c1", "Potency": "inconclusive: 112 nM [activator, full curve, poor fit]"},
      {"smiles": "Cc1ccccc1NC(=O)CC1SCCNC1=O", "note": "(configuration not stated)", "Potency": "inconclusive: 20000 nM [activator, single point]"},
      {"smiles": "CC(=O)N(c1nc(CCl)cs1)c1cccc(C)c1C", "Potency": "inconclusive: 2820 nM [activator, single point]"},
      {"smiles": "C=C(C)CNC(=S)N=Nc1c(O)[nH]c2ccc([N+](=O)[O-])cc12", "cytoprotection (ATP increase)": "inactive: -12.1%"},
      {"smiles": "Cc1ccc(S(=O)(=O)NC(=O)c2cc(C)n(-c3ccccc3)c2C)cc1", "Potency": "inconclusive: 6310 nM [activator, single point]"},
      {"smiles": "O=C(CNC(=S)N(Cc1ccccc1F)C1CCCCC1)NC1CC1", "cytoprotection (ATP increase)": "inactive: -8.08% [at 10 µM]"},
      {"smiles": "Cc1ccn(-c2cc(O)c(-n3ccc(C)n3)cc2O)n1", "cytoprotection (ATP increase)": "inactive: -21.2%"},
      {"smiles": "CCn1c(SCc2nc(N)nc(N3CCCCC3)n2)nc2c1c(=O)n(C)c(=O)n2C", "Potency": "inconclusive: 3160 nM [activator, single point]"},
      {"smiles": "COc1ccc2c3c([nH]c2c1)[C@@H]1C[C@@H]2[C@@H](C[C@H](O)[C@H](OC)[C@H]2C(=O)O)CN1CC3", "Potency": "inconclusive: 50.1 nM [activator, full curve, poor fit]"},
      {"smiles": "O=c1c(-c2ccc(F)c(F)c2)nc2cncnc2n1-c1ccccc1", "Potency": "inconclusive: 794 nM [activator, single point]"},
      {"smiles": "CCC(Sc1nc(-c2ccccc2)c(C#N)c(=O)[nH]1)C(=O)Nc1nnc(C)s1", "note": "(configuration not stated)", "cytoprotection (ATP increase)": "inactive: 5.02% [at 10 µM]"},
      {"smiles": "CCN(CC)C(=O)c1ccccc1NS(C)(=O)=O", "cytoprotection (ATP increase)": "inactive: 4.29% [at 10 µM]"},
      {"smiles": "COc1ccc(C2C3=C(CC(C)(C)CC3=O)Oc3ncn(Cc4ccccc4)c(=N)c32)cc1", "note": "(configuration not stated)", "Potency": "active: 3980 nM"},
      {"smiles": "Cc1c(Cl)cccc1NC(=S)N/N=C/c1ccccc1Cl", "cytoprotection (ATP increase)": "inactive: -0.463% [at 10 µM]"},
      {"smiles": "COC(=O)C1=C(C)NC(=S)NC1c1sccc1C", "note": "(configuration not stated)", "Potency": "inconclusive: 316 nM [activator, full curve, poor fit]"},
      {"smiles": "COc1ccc2c(Cl)c(C(=O)N/N=C3\\CCCC(=O)C3)sc2c1", "cytoprotection (ATP increase)": "inactive: -47.7%"},
      {"smiles": "Cc1ccc(NC(=O)C(C)c2ccc(-c3ccccc3)c(F)c2)cc1", "note": "(configuration not stated)", "cytoprotection (ATP increase)": "inactive: -13.3%"},
      {"smiles": "COC(=O)CN1C(=O)N/C(=C/c2ccc(C)o2)C1=O", "Potency": "inconclusive: 1120 nM [activator, single point]"},
      {"smiles": "Cn1c(NC(=O)/C=C/c2ccccc2)cc(=O)n(C)c1=O", "Potency": "inconclusive: 3550 nM [activator, single point]"},
      {"smiles": "O=C(Oc1ccccc1)N1CCC2(CCCN(c3ccccc3)C2)CC1", "Potency": "inconclusive: 10 nM [activator, full curve, poor fit]"},
      {"smiles": "CCOC(=O)c1cnc2c(cnn2C)c1NCCCn1ccnc1", "Potency": "inconclusive: 631 nM [activator, single point]"},
      {"smiles": "Cc1ccc(/C=N/OC(=O)c2nn(C)cc2Cl)cc1", "Potency": "inconclusive: 1780 nM [activator, partial curve, poor fit]"},
      {"smiles": "COc1ccc(S(=O)(=O)Nc2cccc(N(C)S(C)(=O)=O)c2)cc1C", "Potency": "inconclusive: 1580 nM [activator, partial curve]"},
      {"smiles": "NS(=O)(=O)c1ccc(NC(=S)NCc2ccccc2)cc1", "cytoprotection (ATP increase)": "inactive: -5.95% [at 10 µM]"},
      {"smiles": "S=C(c1cn(Cc2ccc(Br)cc2)c2ccccc12)N1CCOCC1", "Potency": "inconclusive: 5010 nM [activator, single point]"},
      {"smiles": "COCCn1c(C(=O)N2CCCC2)cc2c1C[C@H]1CN(C(=O)c3ccccc3)[C@@](Cc3ccc(OC)cc3)(C(=O)OC)[C@@H]21", "Potency": "inconclusive: 20 nM [activator, full curve, poor fit]"},
      {"smiles": "CCc1ccc(S(=O)(=O)Nc2cccc(C3OCCCO3)c2)cc1", "Potency": "inconclusive: 89.1 nM [activator, partial curve, poor fit]"},
      {"smiles": "COc1ccc(N2CCN(C(=O)c3ccc(N(C)S(=O)(=O)c4ccc(C)cc4)cc3)CC2)cc1", "Potency": "inconclusive: 6310 nM [activator, single point]"},
      {"smiles": "COC(=O)c1nc(NC(=O)c2ccc(F)cc2)n[nH]1", "Potency": "inconclusive: 112 nM [activator, partial curve, poor fit]"},
      {"smiles": "Cc1ccc(CN2CCSc3sccc3C2=O)cc1", "Potency": "inconclusive: 5010 nM [activator, single point]"},
      {"smiles": "O=C(NCc1nnc(SCC(=O)N2CCCc3ccccc32)n1-c1ccccc1)c1cccc2ccccc12", "Potency": "inconclusive: 1120 nM [activator, single point]"},
      {"smiles": "CCCCCCCCCCCCCCCC(=O)OCC(COP(=O)(O)O)OC(=O)CCCCCCCCCCCCCCC", "note": "(configuration not stated)", "Potency": "inconclusive: 5620 nM [activator, single point]"},
      {"smiles": "O=C(c1ccco1)N1CCC2(CCCN(c3cccc(-c4ccccc4)c3)C2)CC1", "Potency": "inconclusive: 794 nM [activator, partial curve, poor fit]"},
      {"smiles": "CC1(C)CC2(CC(C)(C)N1)OC(=O)N1CCc3ccccc3C12C", "note": "(configuration not stated)", "cytoprotection (ATP increase)": "inactive: 1.55% [at 10 µM]"},
      {"smiles": "CN=C(N)NCCCC(N)C(=O)O", "note": "(configuration not stated)", "Potency": "inconclusive: 6310 nM [activator, full curve, poor fit]"},
      {"smiles": "C=CC[n+]1c(-c2ccc(OC)cc2)csc1NNC(=O)Nc1ccccc1", "cytoprotection (ATP increase)": "inactive: 28.4%"},
      {"smiles": "Cc1cccc(NC(=S)NC23CN4CN(CN(C4)C2)C3)c1C", "Potency": "inconclusive: 891 nM [activator, single point]"},
      {"smiles": "CCN(CC)S(=O)(=O)c1ccc2nnn(OCC(=O)Nc3cccc(C#N)c3)c2c1", "cytoprotection (ATP increase)": "inactive: 4.16%"},
      {"smiles": "Cc1cccc(C)c1NC(=O)CN(CC(=O)O)CC(=O)O", "Potency": "inconclusive: 562 nM [activator, partial curve, poor fit]"},
      {"smiles": "CC1CN=C(c2cccn2Cc2ccc(F)cc2Cl)O1", "note": "(configuration not stated)", "Potency": "inconclusive: 5620 nM [activator, single point]"},
      {"smiles": "CCN(CC)CCOC(=O)c1ccc(N)cc1", "Potency": "inconclusive: 8.9 nM [activator, full curve, poor fit]"},
      {"smiles": "CCOC(=O)N1CCN(C(=O)c2ccc3nc(SCc4ccc(F)cc4)n(C)c3c2)CC1", "Potency": "inconclusive: 4470 nM [activator, full curve, poor fit]"},
      {"smiles": "COC(=O)N1C(C)=Cc2ccccc2C1C/C(C)=C/C(C)=O", "note": "(configuration not stated)", "Potency": "inactive"},
      {"smiles": "CN(CC(=O)Nc1ccc(F)cc1)CC(=O)Nc1ccc(F)c(F)c1F", "cytoprotection (ATP increase)": "inactive: 6.6%"},
      {"smiles": "O=C(O)CCCNS(=O)(=O)c1ccccc1", "Potency": "inconclusive: 5620 nM [activator, single point]"},
      {"smiles": "Cc1cccc(NC(=O)/C=C/c2ccc([N+](=O)[O-])s2)c1", "Potency": "inconclusive: 5620 nM [activator, single point]"},
      {"smiles": "CCOC(=O)N1CCC(=NNc2ncc(C(F)(F)F)cc2Cl)CC1", "cytoprotection (ATP increase)": "inactive: -34.7%"},
      {"smiles": "CCN(CCn1cccn1)C(=O)CC1C(=O)NCCN1CC1CCCCC1", "note": "(configuration not stated)", "Potency": "inconclusive: 3160 nM [activator, single point]"},
      {"smiles": "c1nc(NCC2(N3CCOCC3)CCCCC2)c2ccsc2n1", "cytoprotection (ATP increase)": "inactive: -20.6% [at 0.074 µM]"},
      {"smiles": "CCN(CC)c1ccc(/C=N/NC(=O)c2cccc(S(=O)(=O)N3CCOCC3)c2)cc1", "Potency": "inconclusive: 501 nM [activator, single point]"}
    ]}
  ]
}
